Some entries share one result that the patent states for a list of compounds.
Tested on: collagenase (MMP-1)
Test: IL-1 induced collagenase (MMP-1) mRNA expression in chondrocytes
Format: cell-based, calf
Details: chondrocytes in vitro
Description: Cells were treated with paclitaxel at various concentrations (10^−7 to 10^−5 M) for 24 hours, then treated with IL-1β (20 ng/ml) for additional 18 hours in the presence of paclitaxel. Total RNA was isolated, and the MMP-1 mRNA levels were determined by Northern blot analysis. The blots were subsequently stripped and re-probed with ^32P-radiolabeled rat GAPDH cDNA, which was used as a housekeeping gene. The results shown are representative of four independent experiments (FIG. 10D). Quantitation of collagenase-1 and stromelysin-expression mRNA levels were conducted. The MMP-1 and MMP-3 expression levels were normalized with GAPDH.
Primary chondrocyte cultures were freshly isolated from calf cartilage. The cells were plated at 2.5×10^6 per ml in 100×20 mm culture dishes and incubated in Ham's F12 medium containing 5% FBS overnight at 37° C. […] Total RNA was isolated by the acidified guanidine isothiocyanate method and subjected to electrophoresis on a denatured gel Denatured RNA samples (15 μg) were analyzed by gel electrophoresis in a 1% denatured gel, transferred to a nylon membrane and hydridized with the ^32P-labeled collagenase cDNA probe. ^32P-labeled glyceraldehyde phosphate […] (GAPDH) cDNA was used as an internal standard to ensure roughly equal loading. The exposed films were scanned and quantitatively analyzed with IMAGEQUANT.

CCOC(=O)CN [glycine ethyl ester]
concentration that inhibits IL-1-induced collagenase expression: ≤ 100 nM

Reference: patent US20090226500A1, “SUTURES AND ANTI-SCARRING AGENTS” (Angiotech Pharmaceuticals, Inc, priority 2006, published 2009)
